Consider 107 sequences from PubChem BioAssay AID1508600 (Functional Genomics Laboratory (NCATS/FGL), 2020).

About 3,700 (7%) of roughly 53,000 sequences were called active.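 The calls were made as follows: active = gene knockdowns whose robust z-score for IL-1 alpha signal is at least 2 or at most -2, so actives lie on both sides; inactive = the rest.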 The list shows a part of the results.

A short description of the assay: Components of the Cytosolic LPS Sensing Pathway: Gene Identification via Genome-wide siRNA Screen.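 Also: robust z of the log signal after scaling to non-targeting control siRNA wells of the plate.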 Particulars: RAW264.7 macrophages, IL-1a HTRF, actives lie on both sides, screened at 100 nM (by protocol), cells primed 5 h with Pam3CSK4 first. In outline:
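Cells (RAW264.7, 1×10^4 per well) were transfected with siRNA at 100 nM and cultured 48h at 37 degrees C. Pam3CSK4 was added for 5 hours; LipidA transfection followed for 24 hour. IL-1a was then measured by HTRF.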
Turning to GGACUGAAUCAAGUAGAGUTT against Dkk2, the z-score was inactive: 1.42.
Consider GGUAAACCAAACAAAACCATT against Rpl35a, for which the z-score was inactive: 0.264.
The result for CCCAUGACCAAUGGGUGAATT against Plch1 reads inactive: -0.232; that for GGCAAAAAUGAGAAAGAGATT against Hebp2, inactive: -0.643.
Turning to CCGAAUCUCUGUGUACUAUTT against Tubb5, the z-score is inactive: -1.33.
With GGCCCUUUGAGUCGUUCCUTT against Batf3, the z-score is active: 2.6.
Under CCAAUAACUUCGCUUAUAUTT against Ms4a2 stands inactive: -0.389; under GGUUGUUUAAACUCAGUUUTT against Slco4c1, inactive: 0.699; under GCUUUUUACAGGAUAUACATT against Zfp644, inactive: -0.143.
The result for GCUUGUAGAAACCUUUUUGTT against Tm4sf1 reads inactive: -0.591; that for GGGACUUGUCCAUCCUUUUTT against Qrfprl, inactive: -1.71.
The result for GGAAAUUUUUCGCAUGACCTT against Ddx39b reads active: -2.13.
As to GUUUUGUUUAUUCAGCCAGTT against Olfr1002, the z-score is inactive: -0.825.
With GGUUGUUGAAAAGUCUUUATT against Rasa2, the z-score was inactive: -0.102.
On to CCACCAUUUAACUCGGCCUTT against Prkaa1, for which the z-score is inactive: 0.196.
The result for GGAGAAAAACUUCUUGGUATT against Cd96 reads inactive: 1.16; that for ACAGGCAAGAUGAGAGCGATT against Cux1, inactive: 0.124.
As for GGUAGUGCUUCUCAUAUUATT against Olfr1437, the z-score is inactive: -0.419.
As to GGAAGAAUAUUGAGGAGAATT against Tnni2, the z-score was inactive: 0.362.
For the sequence GGACAAAACAUCUUAGAUGTT against Amacr, the z-score was inactive: 0.116.
The result for GGACGGUAAAGUGAAUCAUTT against Tas2r105 reads inactive: 0.386; that for GGGCAGAGUGGAGUAUCUGTT against Cbx4, inactive: -1.35.
Under GGUUAGAAGAAGAAACCCGTT against Prph stands inactive: -1.62.
The result for GCAGAAACGACUUCGAAACTT against Cdc20 reads inactive: 0.405.
For the sequence GCUCCUCGCACUCUUUUGGTT against Olfr551, the z-score was inactive: -0.567.
GGUACAGGACCAAGAAUGGTT against Aknaos: the z-score was inactive: 0.927.
The result for CGGAUUGAUCCUAAUGUAUTT against Igf1r reads inactive: 1.09; that for GGAGAUUAUAGCUCAAGAUTT against Bfsp1, inactive: 0.061; that for GCUUGUGGUUUUUCACAUCTT against Mrgprb3, inactive: -0.108.
For the sequence GGAAAUCCGUGCAGAAAUUTT against Man1a2, the z-score is inactive: 0.72.
Under CGGCAAGGUUUGAAUUUAGTT against Reep3 stands inactive: -0.657.
The result for GGAGUUAGAAUUGAACCUUTT against Mr1 reads inactive: -1.49; that for GCAUCAUUCCUACCGAUGUTT against Ly6g5b, inactive: -0.877; that for GCCGACAAGAGAUACAUGATT against Mettl6, inactive: 1.
Under GGAUUGCCUGCUCACUAACTT against Pced1b stands inactive: 0.196; under GCUGGUCAUUACUAAUACATT against Rsbn1, inactive: 1.5.
As for CCUAAACUGUAGUUGUCUGTT against S100a14, the z-score is inactive: 0.209.
Consider CCUCUACUGUACUUAUACATT against Cpn2, for which the z-score was inactive: -0.557.
Consider GGCUGUCUUGUCCAAAUGUTT against Olfr1357, for which the z-score is active: -2.9.
On to CCAAUGAGUUAAUCACCUUTT against Olfr1135, for which the z-score was inactive: 0.587.
The result for GAGAAAUACCAUUUCCUACTT against Olfr497 reads inactive: 0.381.
Under GCCAUCUUAAACAUGCCUGTT against Tdpoz2 stands inactive: 0.0164; under GCAGAUCCGAGACAAGUAUTT against Cplx2, inactive: -1.91.
“CCUACAUCCUUACAUCAUUTT against 4921511C20Rik”: the z-score was inactive: -0.936.
Under CCAAGUCGGACUUACGGUUTT against Cnpy3 stands inactive: -1.65; under GUGCUGCGUGUGUCAAUGUTT against Asb11, inactive: 1.08.
Regarding GGCACCUAACGACUUCAACTT against Pygm, the z-score was inactive: 0.782.
Under CGUGCUGUAUGGCAAAGUUTT against Bst1 stands inactive: 0.563.
Turning to GGGCCUUUCACUUUUAUUATT against Tmprss2, the z-score is inactive: 1.02.
Under GGCACGAUAGUUUUUGAGATT against Myo1h stands inactive: -1.59; under GCAUACAGCUCAACAGUCATT against Padi2, inactive: -0.51.
Under GGGCUCUGAGGAUACCAUUTT against Hck stands inactive: 0.429; under CGGUCAUGUCUACAUGUGCTT against Cfp, inactive: -0.0864; under GCACAGUCAACUAACUGCGTT against Apom, inactive: -0.0609.
As for GGUGUUUGCCAUGUUCGCATT against Avpr1a, the z-score is inactive: -0.518.
Under GGUAGAUGAUGAAAAACAATT against Erich3 stands active: -2.02; under GGAGAAGCUGUUUGUUCUGTT against Ftcd, inactive: 0.507.
The result for GGGCUUCACCCUCAUACAATT against Pirt reads active: 2.26; that for GGACCACAAAGCAGAAAAUTT against Klhdc7a, inactive: -0.959; that for GCUUCAACAUCAGUUUGGGTT against Olfr1392, inactive: 0.422.
Regarding GCGACUUCAGAUUUCAUUATT against Srsf2, the z-score is inactive: -0.439.
The result for GGAUCCAGACUUAAGCUUATT against Zgpat reads active: 2.57; that for GGGACUUUGGGAAGUGAUGTT against Bbs5, inactive: -1.33.
For the sequence GGCGGACUGUUACUUCACCTT against H2-Ob, the z-score was inactive: 0.0162.
Turning to GGAUAAAGUCUUCAGGUGGTT against Olfr1499, the z-score was inactive: -0.606.
Under CCGGAUGGGAAUCGCUAAATT against Slc22a13b stands active: 2.17; under GGGUAUCAAGUAUAUCUCUTT against Zfp532, inactive: 0.773; under “GGUUCCUACGAGUUCACUGTT against B130024G19Rik”, active: -2.76.
Under GGAAGAUGAUCUUGACCAGTT against Ccdc181 stands inactive: -0.025; under CCGUAAACGAAAUCAUAGUTT against Wdr20rt, inactive: 0.618.
In the case of CCUUGAAGCCUAGAAAUGATT against Tut4, the z-score is inactive: -1.53.
Under CCAAGUUCUUUAGUUAAAGTT against Fshb stands inactive: 0.0269.
Regarding GCGAACUGAUCAUCAACCGTT against Zfp566, the z-score was inactive: -1.07.
On to CGGAAGUUCCUCAUUGCAUTT against Ftcd, for which the z-score is inactive: -0.281.
Under GGCAGUGAGAACCAAGUUUTT against Ccl24 stands inactive: -0.913; under CCUAAAAUACCUUUGUGAGTT against Nfkbie, inactive: -0.371; under GCUAUAUGGUUGAAGAUUUTT against Ptprj, inactive: 0.0839.
As to GGUCAGAUUCCUGAAAUUATT against Vbp1, the z-score was inactive: -0.807.
The result for GGGAAAGAGUACUAAGAAUTT against Olfr678 reads inactive: -1.03; that for GGCUUUGAGUAAACUGUUCTT against Olfr1014, inactive: -1.83; that for AUAGAGAAUACAACACUACTT against Olfr196, inactive: 0.203.
As for GGGAUAUUCAGCAAACAUUTT against Xpo5, the z-score is inactive: 1.01.
Regarding GCUACAGAUUAGGGACAUATT against Pcdhb2, the z-score was active: 4.53.
Turning to CCAGUAACUCAUGGUGCCUTT against Mapkapk3, the z-score was inactive: 0.129.
For GGAAGAUACUGUGGUUUAUTT against Agbl3, the z-score is active: 2.29.
With GGAGGUGUGGCAUCUGGAUTT against Gsn, the z-score was inactive: 1.19.
GGAGUCCUCUAAUGUAAAUTT against Elovl4: the z-score is inactive: 0.0471.
As for GGAUGCUGAUUUAAAGACUTT against Rai14, the z-score is inactive: 1.69.
The result for GGGACAAGUCAAAAACGAGTT against Cdc23 reads inactive: 1.13; that for GGAUGUGCAAUAAUUUUCUTT against Fzd4, inactive: 1.51; that for GCUUCAAGUCAACUUAGUCTT against Hal, inactive: 1.24.
As to CCAACUCCUCUCUGGUUACTT against Olfr95, the z-score was inactive: 0.31.
In the case of GGUUUUUUGAUGUGGAUUGTT against Cyp4f14, the z-score was inactive: 0.931.
On to GCAUUUGAGGCACUUAGAATT against Lrrc4c, for which the z-score was inactive: 0.367.
GGAGGAGAAUGCCACAACUTT against Cd320: the z-score is inactive: -0.227.
Consider CCGAAGCCUUGAAAGCAGUTT against Shq1, for which the z-score is inactive: 0.302.
Under GGACCAGAAACAAAUUAAGTT against Neurod6 stands inactive: 0.638.
Take CAAUAGGACUCAUCCUGGUTT against Olfr670: the z-score is inactive: -1.57.
The result for GGACAAUCUGAUUCAAGUATT against Ms4a2 reads inactive: 0.104.
Take GGAAAUCCGAUAAACCACUTT against Grik1: the z-score was inactive: -1.09.
As to GGACUGCAUGAGAUUUCCCTT against Rhoc, the z-score is inactive: -0.0707.
For the sequence GCAUUGAGAUGAGAGCCUATT against Uroc1, the z-score is inactive: -0.167.
Regarding GCUUUGGAUCAUUCAGACCTT against Celf2, the z-score is inactive: -1.62.
Under GGGAUUCUGGAAAUCUUUGTT against Esr2 stands inactive: 0.998; under GGUUGUCGGAACCAACCCATT against Lrp5, inactive: -0.125; under “CCUACGGGAAACGAAAGCUTT against A730085E03Rik”, inactive: 0.409.
The result for GGCUCAUGACCACCAAAACTT against Pef1 reads inactive: -1.04.
